Reference: PubChem BioAssay AID1259354 (Paczesny and Yang Labs, IUPUI and University of Michigan, 2018)
Screen size: about 78,000 compounds; about 1,800 (2.3%) were called active. The inconclusive results got no clear call from the source; some entries with a clear call stand among them for comparison. Rule as the data show it: active = inhibition above about 30%; inconclusive = mostly about 10% to 28%; inactive = weaker than that. Some compounds were tested as several samples or in several runs, with calls that do not always agree.

The chains behind the UniProt entries cited, without tags or fusion partners. Where a name states a change or a piece, a line headed by the entry shows the natural chain unless it says otherwise.
UniProt Q01638: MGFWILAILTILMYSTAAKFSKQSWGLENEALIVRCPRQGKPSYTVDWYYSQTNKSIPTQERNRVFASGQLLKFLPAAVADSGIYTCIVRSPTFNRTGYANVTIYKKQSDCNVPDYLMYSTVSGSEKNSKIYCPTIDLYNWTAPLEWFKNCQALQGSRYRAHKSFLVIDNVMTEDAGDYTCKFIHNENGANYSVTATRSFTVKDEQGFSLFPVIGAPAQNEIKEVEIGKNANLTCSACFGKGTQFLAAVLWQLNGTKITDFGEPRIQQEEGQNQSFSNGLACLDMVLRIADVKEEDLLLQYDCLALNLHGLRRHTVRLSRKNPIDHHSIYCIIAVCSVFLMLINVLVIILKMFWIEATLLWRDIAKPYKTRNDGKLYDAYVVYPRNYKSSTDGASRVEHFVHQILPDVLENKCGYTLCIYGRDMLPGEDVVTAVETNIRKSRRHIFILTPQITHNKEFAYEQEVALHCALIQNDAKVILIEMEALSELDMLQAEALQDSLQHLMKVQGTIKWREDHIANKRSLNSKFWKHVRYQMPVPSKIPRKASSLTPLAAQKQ

The molecules below were run against Interleukin-1 receptor-like 1 (Homo sapiens) (UniProt Q01638) (assay: blocks human ST2 binding to IL-33, primary screen, biochemical, AlphaLISA (AID 1259354)). Details: AlphaLISA ST2-Fc/biotin-IL-33 interaction, 1 h; at 17 µM, stronger effect = higher value.

| Structure (SMILES) | inhibition |
| --- | --- |
| C=CCc1cc(C)ccc1OCCCCn1ccnc1 | inconclusive: 13% |
| O=C(O)c1cccnc1C(=O)O | inconclusive: 10% |
| FC(F)(F)c1ccccc1CN1CCCC(Nc2ccc3c(c2)OCO3)C1 (centres undefined) | inconclusive: 12% |
| COc1ccc(CC(=O)N2CCCC(CNS(=O)(=O)c3ccc(OC)cc3)C2)cc1 (centres undefined) | inactive |
| CC(=O)Nc1ccc(Oc2ccc3c(c2)C(=O)N(c2ccc(Br)cc2)C3=O)cc1 | inactive |
| CC12CC(NC(=O)N1c1ccc(C(=O)NCCc3ccccc3)cc1)c1ccccc1O2 (centres undefined) | inconclusive: 23% |
| CN(CCc1ccccn1)C(=O)c1cc(COc2ccc3c(c2)OCO3)[nH]n1 | inconclusive: 23% |
| NC(=O)c1cnc2n1CCN(C(=O)c1cccc3c1NCCC3)C2 | inconclusive: 14% |
| Cc1ccc(C)c(NC(=O)CC(=O)NCc2cc(-c3ccccn3)no2)c1 | inactive |
| CC1=C(C(=O)Nc2ccc(C)cn2)C(c2cccc([N+](=O)[O-])c2)C2=C(CCCC2=O)N1 (centres undefined) | inactive |
| CSc1nc2c(c(=O)[nH]1)C(c1ccc(Cl)cc1)C(C(=O)OC(C)C)=C(C)N2 (centres undefined) | inactive |
| CCOc1ccc(-n2c(=O)c3sccc3n(CC(=O)NCC3CCCO3)c2=O)cc1 (centres undefined) | inconclusive: 13% |
| COc1ccc(Nc2cc(C)nc(Nc3ccc(NC(=O)c4ccccc4F)cc3)n2)cc1 | inconclusive: 25% |
| Cc1ccc2nc(-c3ccc(NC(=O)CC4OCCN(C)C4=O)cc3)sc2c1 (centres undefined) | inconclusive: 24% |
| O=C(CSc1nc2c([nH]c3ccccc32)c(=O)n1-c1cccc(Cl)c1)NCC1CCCO1 (centres undefined) | inconclusive: 11% |
| COc1ccc2c(c1)CCc1c(C(=O)Nc3sc4c(c3C#N)CCC4)noc1-2 | inconclusive: 29% |
| Cc1cc2ccccc2c(=O)n1CC(=O)NCC(=O)NC1CCCCC1 | inactive |
| CN(Cc1cscn1)C(=O)c1nn(CC2CC2)c2c1CN(C(=O)c1c3c(nn1C)CCCC3)CC2 | inconclusive: 11% |
| O=C(O)c1cccc(C(=O)N2C[C@@H]3C[C@H](C2)c2ccc(NC(=O)c4cccs4)c(=O)n2C3)c1 | inconclusive: 13% |
| Cc1cc(Br)c2c3c(c(N)c(=O)[nH]c13)-c1ccccc1C2=O | active: 45% |

| Structure (SMILES) | inhibition |
| --- | --- |
| COc1ccccc1-n1c(SCC(=O)Nc2nnc(C)s2)nc2c(c1=O)SCC2 | inconclusive: 11% |
| Cc1nnc(-c2cccc(NC(=O)C3CCCCN3C(=O)c3cccs3)c2)s1 (centres undefined) | inactive |
| CCN(CC)CCCNC(=O)CN1C(=O)/C(=C\c2cccc(Cl)c2)Sc2ccccc21 | inconclusive: 29% |
| O=C(Cn1nc(-c2ccccc2)ccc1=O)NCCCN1CCC(Cc2ccccc2)CC1 | active: 53% |
| O=C(O)c1cccn1Cc1ccccc1Cl | inactive |
| COc1ccc(C(=O)O/N=C(/N)c2cccnc2)c(OC)c1 | inactive |
| Cc1ccc(Cn2ccc(NC(=O)CSc3n[nH]c(C)c3[N+](=O)[O-])n2)cc1 | inconclusive: 18% |
| CCN(CC)CCNC(=O)C1(O)c2cc(Br)ccc2NC(=O)N1c1ccccc1 (centres undefined) | active: 31% |
| CN1CCC(Cn2ccnc2-c2cnc(NCc3ccccc3)nc2)C1 (centres undefined) | inactive |
| CN(Cc1cc(C2CC2)on1)c1nccc(CCC(F)(F)F)n1 | inconclusive: 18% |
| COc1ccc(F)c(CNC2CC(=O)N(C3Cc4ccccc4C3)C2)c1 (centres undefined) | inactive |
| Cc1cc(Nc2ccccc2)nc(Nc2ccc(NC(=O)c3ccc(Cl)cc3)cc2)n1 | inconclusive: 25% |
| CCOc1ccc(-c2cccc3cnccc23)cc1CNC | inactive |
| C=C(C)Cn1c(CNC(=O)CCC)nc2ccccc21 | inconclusive: 14% |
| CC1=C(C(=O)Nc2ccc(Cl)cc2)C(c2cccc([N+](=O)[O-])c2)n2c(nc3ccccc32)N1 (centres undefined) | inconclusive: 11% |
| CCc1nc2nc(C)[nH]n2c(=O)c1NC(=O)Nc1ccc(C)c(F)c1 | inactive |
| CN(Cc1ncc[nH]1)C(=O)c1cc2c(s1)CCCCC2 | inconclusive: 13% |
| O=C(CN(Cc1ccccc1)S(=O)(=O)c1ccccc1)Nc1ccc2c(c1)OCO2 | inconclusive: 11% |
| O=C(CSCc1ccccc1)Nc1ccc(-c2nnc(-c3ccco3)o2)cc1 | inconclusive: 17% |
| CC1=C(C(=O)Nc2ccc(C)cc2C)C(c2ccc(N(C)C)cc2)NC(=O)N1 (centres undefined) | inconclusive: 11% |

Some values from the entries so far:
inhibition, O=C(CN(Cc1ccccc1)S(=O)(=O)c1ccccc1)Nc1ccc2c(c1)OCO2 is entered as inconclusive: 11%
inhibition, COc1ccccc1-n1c(SCC(=O)Nc2nnc(C)s2)nc2c(c1=O)SCC2 is entered as inconclusive: 11%
inhibition, Cc1cc(Nc2ccccc2)nc(Nc2ccc(NC(=O)c3ccc(Cl)cc3)cc2)n1 is entered as inconclusive: 25%
inhibition, Cc1ccc(Cn2ccc(NC(=O)CSc3n[nH]c(C)c3[N+](=O)[O-])n2)cc1 is entered as inconclusive: 18%

More results:

| Structure (SMILES) | inhibition |
| --- | --- |
| CCN(CC)CCNC(=O)C1c2cc(OC)c(OC)cc2C(=O)N(C)C1c1ccc(OC)cc1 (centres undefined) | inactive |
| CN1C[C@H](NC(=O)C2(S(=O)(=O)c3ccccc3)CC2)C[C@H]1CO | inactive |
| CC1(C)Cc2c(c(N3CCOCC3)nc3snc(N)c23)CO1 | inconclusive: 13% |
| O=C(NCc1ccc2c(c1)OCO2)c1ccc2c(c1)N(Cc1ccc(Cl)cc1)C(=O)CS2 | inactive |
| CCC(C)NC(=O)C1(C)CCC(=O)N1Cc1ccc(OC)cc1OC (centres undefined) | inactive |
| Cc1noc(C)c1S(=O)(=O)NCc1ccc(F)cc1 | inactive |
| Cc1nc2ccccn2c1CC(=O)N1C[C@H]2C[C@H](O)[C@H](O)C[C@H]2C1 | inconclusive: 18% |
| O=C(c1cnc2ccccc2n1)N1CCn2c(nc3ccccc32)C1 | inactive |
| CCOc1ccccc1CN1C(=O)CCC1(C)C(=O)NCCc1ccc(OC)c(OC)c1 (centres undefined) | inconclusive: 16% |
| CN1CCN(C(=O)CN2C(=O)S/C(=C/c3ccccc3)C2=O)CC1 | inactive |
| COc1cc2c(cc1OC)C(c1cccc(Cl)c1Cl)CC(=O)N2 (centres undefined) | inconclusive: 14% |
| CCN1CCN(C(=O)c2cc3c(=O)n4ccccc4nc3n2C)CC1 | inactive |
| O=C(Nc1cccnc1)c1ccc(Oc2ccccc2)cc1 | inconclusive: 19% |
| CCOc1ccc(S(=O)(=O)NCCOC23CC4CC(CC(C4)C2)C3)cc1 | inactive |
| Cc1cc(C)n(C)c(=O)c1C(=O)Nc1cccc(C(=O)NC(C)(C)C)c1C | inconclusive: 11% |
| Cc1nc2c(c(N3CC[C@@H]4CCCC[C@@H]4C3)n1)CNC2 | inconclusive: 11% |
| O=[N+]([O-])c1ccc(-c2nc(N3CCCC3)c3ccccc3n2)cc1 | inactive |
| COc1ccc(OC)c(N/C=C(\C#N)c2nc(-c3cc4ccccc4oc3=O)cs2)c1 | active: 37% |
| Cc1ccccc1-c1nc(CN2CCN(C(=O)c3ccc[nH]3)CC2)c(C)o1 | inactive |
